Test results published in article PMC11538695.
Results are given in words; binding and its absence hold for the method and conditions named. Some entries that bind do so weakly or less than the wild type. For some of these results: Sequences can lack the tags named with a protein.

T1: MBP-tagged syntaxin5 (residues 55-330) (human) (UniProt Q13190)
T1 sequence: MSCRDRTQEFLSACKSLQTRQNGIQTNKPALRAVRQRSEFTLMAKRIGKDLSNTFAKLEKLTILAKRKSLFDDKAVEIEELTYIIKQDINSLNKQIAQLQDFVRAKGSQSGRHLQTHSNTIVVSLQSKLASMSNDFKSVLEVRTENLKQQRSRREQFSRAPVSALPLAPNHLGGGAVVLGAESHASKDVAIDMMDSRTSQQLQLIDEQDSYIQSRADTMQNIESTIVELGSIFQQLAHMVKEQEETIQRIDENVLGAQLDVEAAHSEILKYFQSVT

B1: His6-tagged GosR1 (residues 150-230) (domain or fragment, UniProt O95249 150-230)
chain: KSGSGVNNRRTELFLKEHDHLRNSDRLIEETISIAMATKENMTSQRGMLKSIHSKMNTLANRFPAVNSLIQRINLRKRRDS
B2: His6-tagged Ykt6 (residues 1-193) (domain or fragment, UniProt O15498 1-193)
chain: MKLYSLSVLYKGEAKVVLLKAAYDVSSFSFFQRSSVQEFMTFTSQLIVERSSKGTRASVKEQDYLCHVYVRNDSLAGVVIADNEYPSRVAFTLLEKVLDEFSKQVDRIDWPVGSPATIHYPALDGHLSRYQNPREADPMTKVQAELDETKIILHNTMESLLERGEKLDDLVSKSEVLGTQSKAFYKTARKQNS
B3: His6-tagged Bet1 (residues 1-93) (domain or fragment, UniProt O15155 1-93)
chain: MRRAGLGEGVPPGNYGNYGYANSGYSACEEENERLTESLRSKVTAIKSLSIEIGHEVKTQNKLLAEMDSQFDSTTGFLGKTMGKLKILSRGSQ
B4: full-length human VCPIP1 (Valosin-Containing Protein-Interacting Protein, p135) (enzyme, UniProt Q96JH7 1-1222)
chain: MSQPPPPPPPLPPPPPPPEAPQTPSSLASAAASGGLLKRRDRRILSGSCPDPKCQARLFFPASGSVSIECTECGQRHEQQQLLGVEEVTDPDVVLHNLLRNALLGVTGAPKKNTELVKVMGLSNYHCKLLSPILARYGMDKQTGRAKLLRDMNQGELFDCALLGDRAFLIEPEHVNTVGYGKDRSGSLLYLHDTLEDIKRANKSQECLIPVHVDGDGHCLVHAVSRALVGRELFWHALRENLKQHFQQHLARYQALFHDFIDAAEWEDIINECDPLFVPPEGVPLGLRNIHIFGLANVLHRPIILLDSLSGMRSSGDYSATFLPGLIPAEKCTGKDGHLNKPICIAWSSSGRNHYIPLVGIKGAALPKLPMNLLPKAWGVPQDLIKKYIKLEEDGGCVIGGDRSLQDKYLLRLVAAMEEVFMDKHGIHPSLVADVHQYFYRRTGVIGVQPEEVTAAAKKAVMDNRLHKCLLCGALSELHVPPEWLAPGGKLYNLAKSTHGQLRTDKNYSFPLNNLVCSYDSVKDVLVPDYGMSNLTACNWCHGTSVRKVRGDGSIVYLDGDRTNSRSTGGKCGCGFKHFWDGKEYDNLPEAFPITLEWGGRVVRETVYWFQYESDSSLNSNVYDVAMKLVTKHFPGEFGSEILVQKVVHTILHQTAKKNPDDYTPVNIDGAHAQRVGDVQGQESESQLPTKIILTGQKTKTLHKEELNMSKTERTIQQNITEQASVMQKRKTEKLKQEQKGQPRTVSPSTIRDGPSSAPATPTKAPYSPTTSKEKKIRITTNDGRQSMVTLKSSTTFFELQESIAREFNIPPYLQCIRYGFPPKELMPPQAGMEKEPVPLQHGDRITIEILKSKAEGGQSAAAHSAHTVKQEDIAVTGKLSSKELQEQAEKEMYSLCLLATLMGEDVWSYAKGLPHMFQQGGVFYSIMKKTMGMADGKHCTFPHLPGKTFVYNASEDRLELCVDAAGHFPIGPDVEDLVKEAVSQVRAEATTRSRESSPSHGLLKLGSGGVVKKKSEQLHNVTAFQGKGHSLGTASGNPHLDPRARETSVVRKHNTGTDFSNSSTKTEPSVFTASSSNSELIRIAPGVVTMRDGRQLDPDLVEAQRKKLQEMVSSIQASMDRHLRDQSTEQSPSDLPQRKTEVVSSSAKSGSLQTGLPESFPLTGGTENLNTETTDGCVADALGAAFATRSKAQRGNSVEELEEMDSQDAEMTNTTEPMDHS

Tests used:
[1] = target: T1, MBP-tagged syntaxin5 (residues 55-330) (human); test: SEC; pellets of separately expressed SNARE proteins mixed and lysed together, amylose resin by MBP-syntaxin5, then UNIONDEX 200PG gel filtration with SDS-PAGE; 50 mM Tris-HCl pH 7.5, 100 mM NaCl, 1 mM DTT
[2] = target: full-length human VCPIP1 (Valosin-Containing Protein-Interacting Protein, p135) (human) (UniProt Q96JH7); test: cryo-EM structure; full-length VCPIP1-P97/VCP complex reconstituted by size exclusion chromatography; no ATP added; 3.45 Å; both purified

Binder | binding [1] | binding [2]
B1 | binds | –
B2 | binds | –
B3 | binds | –
B4 | – | no binding
